{"source": "patent US8680058B2", "about": "“Selectively targeted antimicrobial peptides and the use thereof” (priority 2006, dated 2014)", "key": {"[1]": {"test_system": "P. aeruginosa ATCC 15692", "experiment": "Killing of exogenous P. aeruginosa in pooled CF sputum", "type": "cell-based, Pseudomonas aeruginosa", "details": "25 μM", "description": "3.2 Activity and stability of G10KHc and G10KHc-D in sputum. Determination of peptide antimicrobial effects or activity in sputum was investigated in a similar manner to previous reports (Sajjan et al., 2001). To assay the activity of G10KHc and G10KHc-D against exogenous P. aeruginosa in sputum, collected sputum samples were diluted 1:10 in 10 mM PBS (PBS) and pooled (referred to as pooled sputum). In 100 μL pooled sputum, ATCC 15692 was added to a final concentration of ˜5×10^6 cfu/mL prior to 25 μM peptide addition.\nIn samples examining the effect of protease inhibitors on peptide activity, pooled sputum samples were pre-treated for 30 min with 1 mM protease inhibitor, either phenylmethylsulphonylfluoride (PMSF), beta-mercaptoethanol (BME), or ethylenediaminetetraacetic acid (EDTA), (all acquired from Sigma-Aldrich), followed by addition of 25 μM G10KHc and ATCC 15692 (˜5×10^6 cfu/mL).\nBacteria surviving peptide treatment were rescued by dilution (1:50) in growth media at 4 h and kept on ice before appropriate dilution and plating on LB agar supplemented with ampicillin (25 μg/mL). After overnight incubation at 37° C., colonies were counted and the surviving cfu/mL quantitated. 100 cfu/mL was considered as the countable limit for all plating procedures. Endogenous organisms already present in the pooled sputum were observed, but were a minority of the population compared to the exogenously added cells (less than 1%, data not shown). As a result endogenous and exogenous cfu/mL were not differentiated for these cultures."}, "[2]": {"test_system": "P. aeruginosa ATCC 15692", "experiment": "Time-kill against high-density planktonic P. aeruginosa", "type": "cell-based, Pseudomonas aeruginosa", "details": "5 μM each agent, 24 h, 1×10^8 cfu/mL culture", "description": "For evaluation of enhanced activity between G10KHc and tobramycin against high density planktonic cultures, ATCC 15692 were grown overnight were adjusted to ˜1×10^8 cfu/mL in ddH2O (pH 7.4) and exposed to 5 μM tobramycin, 5 μM G10KHc or a combination of both agents (a combination of 5 μM tobramycin (2.34 μg/mL) and 5 μM G10KHc or G10). 10 μL of the treated cultures was rescued by dilution after 24 h and the surviving cfu/mL plated on LB and counted after growth on LB agar."}, "[3]": {"test_system": "P. aeruginosa ATCC 15692", "experiment": "Time-kill (killing kinetics), P. aeruginosa in LB with 30% mouse serum", "type": "cell-based, Pseudomonas aeruginosa", "description": "Time-Kill (killing kinetics) experiments were performed essentially as described previously (Eckert et al., 2006). Briefly, P. aeruginosa were grown to log phase and diluted to ˜1×10^5 cfu/mL (moderate density planktonic cultures) in LB with 30% mouse serum (MP Biomedicals) prior to the addition of 10 μM tobramycin, G10 or G10KHc to the cell suspensions. At each time point, 10 μL of the culture was removed and P. aeruginosa cells rescued by dilution in 500 μL LB and kept on ice until plating. Surviving cfu/mL were quantitated after plating on LB agar and incubating overnight at 37° C. under aerobic conditions."}, "[4]": {"test_system": "P. aeruginosa", "details": "data previously reported, cited from earlier work"}, "[5]": {"test_system": "P. aeruginosa biofilms", "experiment": "Rotating-disk biofilm reactor, P. aeruginosa biofilm killing", "type": "cell-based, Pseudomonas aeruginosa"}, "[6]": {"test_system": "P. aeruginosa", "experiment": "Propidium iodide dye uptake (membrane permeability)", "type": "cell-based, Pseudomonas aeruginosa", "details": "2 μM G10KHc, 5 min"}, "[7]": {"test_system": "P. aeruginosa ATCC 15692", "experiment": "Effect of rhDNase on STAMP killing in concentrated sputum", "type": "cell-based, Pseudomonas aeruginosa", "details": "concentrated sputum pretreated with rhDNase", "description": "3.4 Effect of rhDNase on STAMP activity in sputum. Recombinant human DNase, which is commonly used during treatment of CF to reduce sputum viscosity and promote airway clearing (Fuchs et al., 1994), was added to pooled, concentrated sputum samples to determine if G10KHc/PMSF and G10KHc-D activity could be improved during co-treatment under these conditions. To determine the effect of rhDNase (Genentech, San Francisco, Calif.) on STAMP killing ability, individual sputum samples were diluted 1:2 in 100 μg/mL rhDNase, briefly vortexed, and incubated at room temperature for 10 min. Treated samples were then pooled, followed by 1 mM PMSF addition, where appropriate, and incubation for 1 h. 25 μM G10KHc or G10KHc-D was then added with ˜5×10^6 cfu/mL ATCC 15692 and incubated 4 h. Survivors were then rescued and quantitated by plating as described above."}}, "note": "Like-named read-outs stand apart in the source and are kept apart here. For part of these data: Not every detail of the peptide structures is certain; ends, links or a residue may be inferred. Some results were stated once for a whole list of compounds, not compound by compound. Non-standard residues stand in square brackets, D forms with d. Residues, ends and D or L forms follow the SMILES beside them. No end group written: not given here.", "data": [{"molecule": "KKHRKHRKHRKHGGSGGSKNLRRIIRKGIHIIKKYG [Peptide G10KHc]", "values": [{"measurement": "activity against exogenously added P. aeruginosa in pooled sputum", "setting": "[1]; 4 h, no protease inhibitor", "result": "not active"}, {"measurement": "reduction in surviving cfu/mL", "setting": "[1]; 4 h, sputum pre-treated with 1 mM PMSF", "result": "over 3 log10"}, {"measurement": "rescue of G10KHc activity or stability by BME or EDTA", "setting": "[1]; sputum pre-treated with 1 mM BME or EDTA, data not shown", "result": "ineffective in rescuing G10KHc activity or stability"}, {"measurement": "surviving cfu/mL", "setting": "[2]", "result": "~1×10^8 cfu/mL"}, {"measurement": "viable P. aeruginosa", "setting": "[3]; 10 μM, by 30 min, 30% mouse serum", "result": "under 100 cfu/mL"}, {"measurement": "time to eliminate all P. aeruginosa cfu/mL", "setting": "[3]; growth medium", "result": "≤ 2", "unit": "h"}, {"measurement": "reduction of recoverable cfu/mL", "setting": "[3]; growth medium, after 30 min of exposure", "result": "over 90%"}, {"measurement": "MIC", "setting": "[4]; P. aeruginosa ATCC 9027", "result": 5.5, "unit": "µM"}, {"measurement": "MIC", "setting": "[4]; P. aeruginosa ATCC 15692", "result": 6, "unit": "µM"}, {"measurement": "MIC", "setting": "[4]; P. aeruginosa ATCC 27853", "result": 6, "unit": "µM"}, {"measurement": "killing effect against P. aeruginosa biofilms", "setting": "[5]; 100 μg/mL alone, 4 h or 24 h", "result": "very limited killing effects"}, {"measurement": "effectiveness per μM at reducing biofilm viability compared to tobramycin", "setting": "[5]; 100 μg/mL each (tobramycin 213 μM, G10KHc 23.5 μM)", "result": "~10", "unit": "fold"}, {"measurement": "intracellular PI staining (dye uptake)", "setting": "[6]", "result": "intracellular PI staining was clearly visible"}, {"measurement": "number of viable P. aeruginosa recovered, PI/G10KHc versus PI alone", "setting": "[6]", "result": "similar"}]}, {"molecule": "CC[C@@H](C)[C@@H](NC(=O)CNC(=O)[C@@H](CCCCN)NC(=O)[C@@H](CCCNC(=N)N)NC(=O)[C@H](NC(=O)[C@H](NC(=O)[C@@H](CCCNC(=N)N)NC(=O)[C@@H](CCCNC(=N)N)NC(=O)[C@@H](CC(C)C)NC(=O)[C@@H](CC(N)=O)NC(=O)[C@@H](CCCCN)NC(=O)[C@@H](CO)NC(=O)CNC(=O)CNC(=O)[C@@H](CO)NC(=O)CNC(=O)CNC(=O)[C@@H](Cc1c[nH]cn1)NC(=O)[C@@H](CCCCN)NC(=O)[C@@H](CCCNC(=N)N)NC(=O)[C@@H](Cc1c[nH]cn1)NC(=O)[C@@H](CCCCN)NC(=O)[C@@H](CCCNC(=N)N)NC(=O)[C@@H](Cc1c[nH]cn1)NC(=O)[C@@H](CCCCN)NC(=O)[C@@H](CCCNC(=N)N)NC(=O)[C@@H](Cc1c[nH]cn1)NC(=O)[C@@H](CCCCN)NC(=O)[C@H](N)CCCCN)[C@H](C)CC)[C@H](C)CC)C(=O)N[C@H](Cc1c[nH]cn1)C(=O)N[C@@H](C(=O)N[C@@H](C(=O)N[C@H](CCCCN)C(=O)N[C@H](CCCCN)C(=O)N[C@H](Cc1ccc(O)cc1)C(=O)NCC(=O)O)[C@H](C)CC)[C@H](C)CC", "note": "[Peptide G10KHc-D] (H-[dK][dK][dH][dR][dK][dH][dR][dK][dH][dR][dK][dH]GG[dS]GG[dS][dK][dN][dL][dR][dR][dI][dI][dR][dK]G[dI][dH][dI][dI][dK][dK][dY]G-OH; N-terminus and C-terminus assumed)", "values": [{"measurement": "untreated cfu/mL remaining", "setting": "[7]", "result": "< 5", "unit": "%"}]}]}
